Results deposited as PubChem BioAssay AID720505 (Drosophila RNAi Screening Center, 2013)
Aim: 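Knock-downs that reduce calcium influx once internal stores are emptied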 (primary screen). Cell system: Drosophila S2R+ cells. Reagents: long dsRNA against Drosophila genes. Conditions: thapsigargin (2 µM) in calcium-free buffer to empty internal stores, then 2 mM calcium added back. Detection: 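Stores emptied by 2 µM thapsigargin without calcium, then 2 mM calcium re-added; fluo-4 fluorescence followed by FLIPR in 384-well plates, per-well averaged endpoint, raw; two screen passes, some wells retested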. Scale: calcium signal: higher = more calcium entry after store depletion. Hit rule: 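Knock-downs counted as hits when calcium entry dropped relative to STIM1 positive and Rho1 negative controls present on each plate; roughly 1500 genes called, with reductions of differing size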. Meaning of the calls: active = called as lowering calcium entry; inactive = not called.
In all, the deposit lists about 20,000 reagents; this is an unselected part of those that have a named target and a result. Over the whole deposit, about 2,100 (10%) got an active call. 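Raw plate signals without normalisation; calls rest on control-based scores that were not deposited; replicate 2 separates called from uncalled poorly.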 Names joined by + are all predicted targets of the reagent. Reagent sequences are not shown. Not stated in the record: the amount of reagent, the time to read-out.

What is on record for Uck (Uridine-cytidine kinase) [DRSC16028]?
calcium signal, replicate 1: 178; calcium signal, replicate 2: 138; call: inactive

How did the screen score MFS9 (Major Facilitator Superfamily Transporter 9) [DRSC15560]?
calcium signal, replicate 1: 173; calcium signal, replicate 2: 220; call: inactive

For TyrR (Tyramine receptor) [DRSC16242], how do the results read?
calcium signal, replicate 1: 65.2; calcium signal, replicate 2: 94.9; call: active

For Grl58a (Gustatory receptor-like 58a) [DRSC04145], how do the results read?
calcium signal, replicate 1: 190; calcium signal, replicate 2: 85.1; call: inactive

What is on record for senju [DRSC02366]?
calcium signal, replicate 1: 155; calcium signal, replicate 2: 106; call: inactive

For wap (wings apart) [DRSC20626], what does the deposit list?
calcium signal, replicate 1: 144; calcium signal, replicate 2: 110; call: inactive

Which result is listed for CHMP2B (Charged multivesicular body protein 2b) [DRSC10436]?
calcium signal, replicate 1: 93.1; calcium signal, replicate 2: 99.8; call: inactive

For CG15170 [DRSC02471], what was measured?
calcium signal, replicate 1: 98.6; calcium signal, replicate 2: 118; call: inactive

What is on record for jb (jean-baptiste) [DRSC20531]?
calcium signal, replicate 1: 104; calcium signal, replicate 2: 84.1; call: inactive

What did the screen give for Prosalpha4T2 (Proteasome alpha4 subunit, Testis-specific 2) [DRSC04643]?
calcium signal, replicate 1: 142; calcium signal, replicate 2: 198; call: inactive

For Ctl1 (Choline transporter-like 1) [DRSC08303], how do the results read?
calcium signal, replicate 1: 100; calcium signal, replicate 2: 98.6; call: inactive

What did the screen give for SF1 (Splicing factor 1) [DRSC16844]?
calcium signal, replicate 1: 136; calcium signal, replicate 2: 188; call: inactive

With CG7988 [DRSC16358], what does the deposit list?
calcium signal, replicate 1: 207; calcium signal, replicate 2: 182; call: inactive

For SLIRP1 + anox [DRSC20542], what does the deposit list?
calcium signal, replicate 1: 160; calcium signal, replicate 2: 127; call: inactive

What did the screen give for Sfmbt (Scm-related gene containing four mbt domains) [DRSC02552]?
calcium signal, replicate 1: 94.8; calcium signal, replicate 2: 125; call: inactive

With CG17744 [DRSC10286], how do the results read?
calcium signal, replicate 1: 130; calcium signal, replicate 2: 79.2; call: inactive

For CG14829 [DRSC10199], how do the results read?
calcium signal, replicate 1: 81.4; calcium signal, replicate 2: 33.2; call: inactive

For CG13375 [DRSC18621], what does the deposit list?
calcium signal, replicate 1: 133; calcium signal, replicate 2: 140; call: inactive

For mtd (mustard) [DRSC12131], what does the deposit list?
calcium signal, replicate 1: 115; calcium signal, replicate 2: 92.9; call: inactive

What did the screen give for mtd (mustard) [DRSC12380]?
calcium signal, replicate 1: 99.1; calcium signal, replicate 2: 129; call: inactive

With mtd (mustard) [DRSC12381], what does the deposit list?
calcium signal, replicate 1: 143; calcium signal, replicate 2: 168; call: inactive

With CG17549 [DRSC02625], what does the deposit list?
calcium signal, replicate 1: 107; calcium signal, replicate 2: 98.3; call: inactive

For Kmn1 (kinetochore Mis12-Ndc80 network component 1) [DRSC19666], what does the deposit list?
calcium signal, replicate 1: 84.4; calcium signal, replicate 2: 97.8; call: inactive

With rho-6 (rhomboid-6) [DRSC02588], what does the deposit list?
calcium signal, replicate 1: 82.5; calcium signal, replicate 2: 94.6; call: inactive

For Cchl (Cytochrome c heme lyase) [DRSC15949], what was measured?
calcium signal, replicate 1: 105; calcium signal, replicate 2: 206; call: inactive

What is on record for ND-20 (NADH dehydrogenase (ubiquinone) 20 kDa subunit) [DRSC20164]?
calcium signal, replicate 1: 109; calcium signal, replicate 2: 111; call: inactive

With klar (klarsicht) [DRSC08718], how do the results read?
calcium signal, replicate 1: 46.1; calcium signal, replicate 2: 148; call: active

What did the screen give for klar (klarsicht) [DRSC22393]?
calcium signal, replicate 1: 85.9; calcium signal, replicate 2: 73.1; call: inactive

With Scgdelta (Sarcoglycan delta) [DRSC18544], how do the results read?
calcium signal, replicate 1: 88.7; calcium signal, replicate 2: 161; call: inactive

Which result is listed for CaMKII (Calcium/calmodulin-dependent protein kinase II) [DRSC17214]?
calcium signal, replicate 1: 113; calcium signal, replicate 2: 136; call: inactive

With Cec2 (Cecropin 2) [DRSC21885], what was measured?
calcium signal, replicate 1: 84.6; calcium signal, replicate 2: 191; call: inactive

What is on record for CG43077 [DRSC19168]?
calcium signal, replicate 1: 58.8; calcium signal, replicate 2: 106; call: inactive

With CR43142 (pseudo) [DRSC00962], how do the results read?
calcium signal, replicate 1: 80.9; calcium signal, replicate 2: 132; call: inactive

Which result is listed for Aldh7A1 (Aldehyde dehydrogenase 7 family member A1) [DRSC11083]?
calcium signal, replicate 1: 152; calcium signal, replicate 2: 106; call: inactive

What did the screen give for Myo10A (Myosin 10A) [DRSC19758]?
calcium signal, replicate 1: 71; calcium signal, replicate 2: 92.6; call: active

For Myo10A (Myosin 10A) [DRSC19834], what does the deposit list?
calcium signal, replicate 1: 63.2; calcium signal, replicate 2: 77.4; call: active

What did the screen give for Myo10A (Myosin 10A) [DRSC19837]?
calcium signal, replicate 1: 139; calcium signal, replicate 2: 86.5; call: inactive

With Myo10A (Myosin 10A) [DRSC23140], what does the deposit list?
calcium signal, replicate 1: 96.8; calcium signal, replicate 2: 111; call: inactive

Look-ups from above.
Entry for senju [DRSC02366] under “calcium signal, replicate 2”: 106
For “calcium signal, replicate 2”, ND-20 (NADH dehydrogenase (ubiquinone) 20 kDa subunit) [DRSC20164] has 111
Under “calcium signal, replicate 1”, Uck (Uridine-cytidine kinase) [DRSC16028] shows 178
Value for Myo10A (Myosin 10A) [DRSC19758] in “call”: active
